Out of some 340,000 compounds screened, about 170 (0.05%) were called active. The shares of active, inactive and inconclusive entries below differ from those in the screen. The call rests on the fitted dose curve; in most records, active means well fitted inhibition curve with a large enough effect in the signal ratio, with a control signal flat (not every such curve was filed as active); inconclusive means small, poorly fitted or top-dose-only effect, or effect the other way, or a change in a side signal; inactive means flat fitted curve, though single readings scatter; the % refers to the signal ratio. Potencies beside an inconclusive call are fits to weak or partial responses and may not hold up.
Experiment: qHTS Assay to Find Inhibitors of Chronic Active B-Cell Receptor Signaling;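 on activity change, negative = inhibition: plate controls were basal doxycycline-induced cells for no effect and cells given 10 µM MG132 for full effect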
Settings: ABC-DLBCL IkBa-CBG/CBR reporter, luminescence ratio (green luciferase fused to IkBa over red control in TMD8 lymphoma cells), 4 h; activity change, negative = inhibition: at 46.1 µM (top of the series) unless noted
Procedure, shortened: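 Concentration-response series (up to 46 uM) were applied to TMD8 dual-reporter cells for 4 h at 37C with doxycycline. Green/red ratio, after filter-overlap correction, defined %Activity; red signal alone was normalised to basal cells and zero luminescence.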
Potency means the concentration at half of the fitted maximal effect.

Compound	activity change, negative = inhibition	Potency
COc1ccc(NC(=O)CSc2nc3nc(C)c(Cc4ccccc4Cl)c(C)n3n2)cc1OC	inactive: -4.1%	–
Cc1c(C(=O)NCCSCc2ccco2)cccc1[N+](=O)[O-]	inconclusive: 2.25%	–
CN(CCOc1ccc(Cl)cc1)CC(=O)Nc1ccc(OC(F)(F)F)cc1	inconclusive: -10.1%	–
O=C(Nc1nccs1)c1ccc(Br)c(S(=O)(=O)N2CCOCC2)c1	inactive: 25.9%	–
COc1ccc(N/C=C/c2nc(SC)nnc2C)cc1	inactive: 0.0866%	–
COc1ccccc1N(CC(=O)N/N=C(\C)c1ccccc1O)S(=O)(=O)c1ccc(C)cc1	inconclusive: 13%	–
CC1(C)Cc2c(c(-c3ccco3)[nH]c(=O)c2C#N)CS1	inactive: 12.1%	–
Cc1ccc(C(=O)n2cnc3ccccc32)cc1C	inconclusive: 0.228%	–
COc1ccc(-c2ccc(CCC(=O)O)n2CC(=O)Nc2ccccc2C)cc1	inactive: 4.15%	–
Cc1ccc(/C=N/Nc2ccc(C(=O)O)cc2)s1	inconclusive: -47%	–
COc1cc(C=NNC(=O)c2ccc(NS(=O)(=O)c3cccs3)cc2)cc(Br)c1O	–	inconclusive: 20.6 µM [falling, single point]
CCOC(=O)Nc1ccccc1N1C(=O)c2ccccc2C1=O	inconclusive: 4.96%	–
CCCCc1cc(=O)oc2c(C)c(OCC(=O)N3C[C@H]4C[C@@H](C3)c3cccc(=O)n3C4)ccc12	inactive: -1.2%	–
O=C1c2ccccc2C(=O)N1C1CCCCC1	inconclusive: 2.16%	–
Cc1ccccc1NC(=O)CN1C(=O)S/C(=C\c2ccc(-c3cc(C(=O)O)ccc3C)o2)C1=O	inactive: 2.86%	–
CCOC(=O)Cn1c(-c2cccnc2)nc(-c2ccccc2)c1-c1ccccc1	inconclusive: -3.06%	–
O=C(CCC1CCCCC1)NNC(=O)c1cnccn1	inconclusive: -1.16%	–
COc1ccc(NC(=S)NC(=NS(=O)(=O)c2ccc(Cl)cc2)c2ccccc2)cc1	–	inconclusive: 29.1 µM [falling, single point]
CCOC(=O)N1CCN(C(=O)c2ccc3c(c2)N(Cc2ccc(F)cc2)CCS3)CC1	inconclusive: 24.8%	–
Cc1ccc2c(c1)N(Cc1cccc(Cl)c1)C(=O)c1cccnc1O2	inconclusive: 0.611%	–
Cc1noc(C)c1CSCC(=O)Nc1cc(C(F)(F)F)ccc1N1CCCCC1	inactive: 4.72%	–
Cc1cccc(N(CC(=O)NCCSc2ccccn2)S(=O)(=O)c2ccccc2)c1	inactive: -0.0096%	–
Cc1ccc(NNC(=O)CCc2ccccc2)c(C)c1	inconclusive: 4.82%	–
O=C1c2cccc3cc([N+](=O)[O-])cc(c23)C(=O)N1/N=C/c1ccc(O)cc1O	inconclusive: -0.729%	–
O=C(c1cccc(C(F)(F)F)c1)C1CCCN(C(=O)CN2CCCC2=O)C1 (stereo not drawn)	–	inconclusive: 35.5 µM [falling, single point]
Clc1ccc(Cn2nnc3ccccc32)cc1	inconclusive: 2.96%	–
COc1c(/C=N/NC(=O)[C@H]2C[C@@H]2c2ccccc2)c(CCN(C)C(C)=O)cc2c1OCO2	inconclusive: 3.86%	–

Compound	activity change, negative = inhibition	Potency
CN(C1=NC(=O)CS1)c1ccc(O)cc1	inconclusive: 0.0882%	–
CSc1nc(-c2ccccc2)nc(NC(=O)c2ccccc2)c1C(C)=O	inconclusive: 14.6%	–
COc1ccc2occ(C(=O)c3cccs3)c2c1	inconclusive: -1.84%	–
c1ccc2c(N3CCOCC3)nc(-c3ccncc3)nc2c1	inconclusive: 16.8%	–
CS/C(Nc1cc(Cl)ccc1Cl)=C(/C#N)C(=O)c1ccco1	–	inconclusive: 25.1 µM [falling, single point]
O=C(NC(=S)Nc1ccc(Cc2ccncc2)cc1)c1ccc(F)cc1	–	inconclusive: 15.8 µM [falling, single point]
CCCCOc1ccc(CSC(=N)N)cc1[N+](=O)[O-]	–	inconclusive: 23.1 µM [falling, single point]
CCCc1ccc(C(C)NC(=S)NCc2ccc(F)cc2)cc1 (stereo not drawn)	–	inconclusive: 14.1 µM [falling, single point]
O=[N+]([O-])c1cccc(CSC2=NCCN2S(=O)(=O)c2ccccc2)c1	–	inconclusive: 20 µM [falling, single point]
O=C(c1ccccc1)c1cc2cc(Cl)ccc2[nH]1	inconclusive: 0.0261%	–
Cc1cccc(N2CCc3c2nc2ccc(Br)cc2c3N)c1	inconclusive: 25.2%	–
CCCCc1cc(=O)oc2cc(OS(C)(=O)=O)ccc12	inconclusive: 0.417%	–
Cc1c(OC(C(=O)O)c2ccccc2)ccc2c3c(c(=O)oc12)CCC3 (stereo not drawn)	inconclusive: -11%	–
Oc1ccc(NC(=S)N=Nc2c(O)[nH]c3ccccc23)cc1	–	inconclusive: 7.94 µM [falling, partial curve, poor fit]
CC1CCCN(S(=O)(=O)c2ccc(C(=O)Nc3nnc(-c4ccncc4)o3)cc2)C1 (stereo not drawn)	inconclusive: 0.155%	–
O=C(O)CSc1ncnc2c1oc1ccccc12	inconclusive: 22.2%	–
CC(=O)c1c(C)[nH]c(C(=O)Nc2nc(-c3ccccc3)c(C)s2)c1C	inconclusive: 17.6%	–
CCC(C)c1ccc(S(=O)(=O)N2CCN(CC(O)COCC3CCCO3)CC2)cc1 (stereo not drawn)	inactive: -0.458%	–
CC(/C=N/NC(=O)Cc1cccs1)=C\c1ccccc1	inconclusive: 1.43%	–
C=CCn1c(SCC(=O)N2CCCC2)nc2scc(-c3cccs3)c2c1=O	inconclusive: 10.6%	–
CCN1CCN(S(=O)(=O)c2ccc(Cl)c(C(=O)Nc3ccccc3N3CCCCC3)c2)CC1	inactive: 5.4%	–
CC1=C(C(=O)Nc2ccccc2)C(c2coc3ccccc3c2=O)C2=C(CCCC2=O)N1 (stereo not drawn)	inactive: -17.1%	–
Cc1[nH]n(C)c(=O)c1C(=O)c1c(-c2c(Cl)cccc2Cl)noc1C	–	inconclusive: 10 µM [falling, partial curve, poor fit]
NS(=O)(=O)c1cccc(NC(=O)c2cc(-c3cccs3)nc3ccccc23)c1	inconclusive: 10.1%	–
CC(CC(=O)N1CCN(c2cccc(Cl)c2)CC1)S(=O)(=O)c1ccc2c(c1)NC(=O)CO2 (stereo not drawn)	–	inconclusive: 25.1 µM [falling, single point]
Cc1cc(=O)n2[nH]c(-c3cccnc3)nc2n1	–	inconclusive: 2.91 µM [falling, partial curve]

Not a retest: an excerpt of the list.
Compound	activity change, negative = inhibition	Potency
Cc1cccc(N(CC(=O)NCCSc2ccccn2)S(=O)(=O)c2ccccc2)c1	inactive: -0.0096%	–
Cc1ccc(NNC(=O)CCc2ccccc2)c(C)c1	inconclusive: 4.82%	–
O=C1c2cccc3cc([N+](=O)[O-])cc(c23)C(=O)N1/N=C/c1ccc(O)cc1O	inconclusive: -0.729%	–
O=C(c1cccc(C(F)(F)F)c1)C1CCCN(C(=O)CN2CCCC2=O)C1 (stereo not drawn)	–	inconclusive: 35.5 µM [falling, single point]
Clc1ccc(Cn2nnc3ccccc32)cc1	inconclusive: 2.96%	–
COc1c(/C=N/NC(=O)[C@H]2C[C@@H]2c2ccccc2)c(CCN(C)C(C)=O)cc2c1OCO2	inconclusive: 3.86%	–
CN(C1=NC(=O)CS1)c1ccc(O)cc1	inconclusive: 0.0882%	–
CSc1nc(-c2ccccc2)nc(NC(=O)c2ccccc2)c1C(C)=O	inconclusive: 14.6%	–
COc1ccc2occ(C(=O)c3cccs3)c2c1	inconclusive: -1.84%	–
c1ccc2c(N3CCOCC3)nc(-c3ccncc3)nc2c1	inconclusive: 16.8%	–
CS/C(Nc1cc(Cl)ccc1Cl)=C(/C#N)C(=O)c1ccco1	–	inconclusive: 25.1 µM [falling, single point]
O=C(NC(=S)Nc1ccc(Cc2ccncc2)cc1)c1ccc(F)cc1	–	inconclusive: 15.8 µM [falling, single point]
CCCCOc1ccc(CSC(=N)N)cc1[N+](=O)[O-]	–	inconclusive: 23.1 µM [falling, single point]
CCCc1ccc(C(C)NC(=S)NCc2ccc(F)cc2)cc1 (stereo not drawn)	–	inconclusive: 14.1 µM [falling, single point]
O=[N+]([O-])c1cccc(CSC2=NCCN2S(=O)(=O)c2ccccc2)c1	–	inconclusive: 20 µM [falling, single point]
O=C(c1ccccc1)c1cc2cc(Cl)ccc2[nH]1	inconclusive: 0.0261%	–

From PubChem BioAssay AID493014 (National Center for Advancing Translational Sciences (NCATS), 2011)
